Experimental data: article PMC10011724

Molecular target: Flag-BPGAP1 (human)
Assay: co-IP; MCF7 cells with Flag-BPGAP1 and HA-Vav1; anti-Flag beads; stimulated with 100 ng/ml EGF for the times indicated, with or without U0126 (10 uM, 1 h), or seeded on collagen-coated plates (cell spreading) for the indicated times

B1: HA-Vav1 (protein, UniProt P15498 1-845)
chain: MELWRQCTHWLIQCRVLPPSHRVTWDGAQVCELAQALRDGVLLCQLLNNLLPHAINLREVNLRPQMSQFLCLKNIRTFLSTCCEKFGLKRSELFEAFDLFDVQDFGKVIYTLSALSWTPIAQNRGIMPFPTEEESVGDEDIYSGLSDQIDDTVEEDEDLYDCVENEEAEGDEIYEDLMRSEPVSMPPKMTEYDKRCCCLREIQQTEEKYTDTLGSIQQHFLKPLQRFLKPQDIEIIFINIEDLLRVHTHFLKEMKEALGTPGAANLYQVFIKYKERFLVYGRYCSQVESASKHLDRVAAAREDVQMKLEECSQRANNGRFTLRDLLMVPMQRVLKYHLLLQELVKHTQEAMEKENLRLALDAMRDLAQCVNEVKRDNETLRQITNFQLSIENLDQSLAHYGRPKIDGELKITSVERRSKMDRYAFLLDKALLICKRRGDSYDLKDFVNLHSFQVRDDSSGDRDNKKWSHMFLLIEDQGAQGYELFFKTRELKKKWMEQFEMAISNIYPENATANGHDFQMFSFEETTSCKACQMLLRGTFYQGYRCHRCRASAHKECLGRVPPCGRHGQDFPGTMKKDKLHRRAQDKKRNELGLPKMEVFQEYYGLPPPPGAIGPFLRLNPGDIVELTKAEAEQNWWEGRNTSTNEIGWFPCNRVKPYVHGPPQDLSVHLWYAGPMERAGAESILANRSDGTFLVRQRVKDAAEFAISIKYNVEVKHIKIMTAEGLYRITEKKAFRGLTELVEFYQQNSLKDCFKSLDTTLQFPFKEPEKRTISRPAVGSTKYFGTAKARYDFCARDRSELSLKEGDIIKILNKKGQQGWWRGEIYGRVGWFPANYVEEDYSEYC
  binding: binds

No constants are given. Whether binding was seen depends on the method and setting. Binding seen in cells or lysates may run through a third protein. A result given as binding can be weak or reduced; the word gives no strength. Tags and fused reporters may be left off the sequences shown.
